From paper PMC4164936, “The translation elongation factor eEF1A1 couples transcription to translation during heat shock response”
These are yes or no findings as the source states them, for the method shown. For some of these results: Binding seen in cells or lysates may run through a third protein. Some entries that bind do so weakly or less than the wild type.

By UniProt entry, the sequences of proteins in these tests, tags left out. Where a name states a change or a piece, a line headed by the entry shows the natural chain unless it says otherwise.
UniProt P68104: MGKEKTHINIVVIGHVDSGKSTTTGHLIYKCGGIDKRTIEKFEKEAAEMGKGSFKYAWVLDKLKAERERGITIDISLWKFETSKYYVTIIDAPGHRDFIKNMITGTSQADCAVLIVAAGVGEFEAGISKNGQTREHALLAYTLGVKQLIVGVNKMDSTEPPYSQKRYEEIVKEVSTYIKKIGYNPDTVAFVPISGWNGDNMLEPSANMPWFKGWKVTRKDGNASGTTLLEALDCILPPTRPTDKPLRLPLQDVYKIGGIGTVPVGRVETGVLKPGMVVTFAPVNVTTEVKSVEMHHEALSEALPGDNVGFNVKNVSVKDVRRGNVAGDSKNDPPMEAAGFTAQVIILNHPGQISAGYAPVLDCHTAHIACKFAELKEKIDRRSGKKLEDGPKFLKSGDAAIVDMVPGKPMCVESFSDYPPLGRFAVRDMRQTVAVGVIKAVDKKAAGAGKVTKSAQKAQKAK
UniProt Q00613: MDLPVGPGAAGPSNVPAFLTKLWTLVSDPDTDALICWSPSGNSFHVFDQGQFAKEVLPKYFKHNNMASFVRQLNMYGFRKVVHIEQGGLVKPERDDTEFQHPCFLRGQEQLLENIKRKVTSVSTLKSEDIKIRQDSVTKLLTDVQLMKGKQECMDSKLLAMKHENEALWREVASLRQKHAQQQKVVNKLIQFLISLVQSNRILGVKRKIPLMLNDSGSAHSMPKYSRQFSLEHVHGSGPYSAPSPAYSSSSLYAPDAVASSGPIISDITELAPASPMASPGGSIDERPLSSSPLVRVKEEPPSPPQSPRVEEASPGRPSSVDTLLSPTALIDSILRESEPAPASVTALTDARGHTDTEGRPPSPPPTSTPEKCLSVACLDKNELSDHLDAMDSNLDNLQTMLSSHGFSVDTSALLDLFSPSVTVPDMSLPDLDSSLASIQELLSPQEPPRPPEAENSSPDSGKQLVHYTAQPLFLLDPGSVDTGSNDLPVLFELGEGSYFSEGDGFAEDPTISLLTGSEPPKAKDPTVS
UniProt P12270: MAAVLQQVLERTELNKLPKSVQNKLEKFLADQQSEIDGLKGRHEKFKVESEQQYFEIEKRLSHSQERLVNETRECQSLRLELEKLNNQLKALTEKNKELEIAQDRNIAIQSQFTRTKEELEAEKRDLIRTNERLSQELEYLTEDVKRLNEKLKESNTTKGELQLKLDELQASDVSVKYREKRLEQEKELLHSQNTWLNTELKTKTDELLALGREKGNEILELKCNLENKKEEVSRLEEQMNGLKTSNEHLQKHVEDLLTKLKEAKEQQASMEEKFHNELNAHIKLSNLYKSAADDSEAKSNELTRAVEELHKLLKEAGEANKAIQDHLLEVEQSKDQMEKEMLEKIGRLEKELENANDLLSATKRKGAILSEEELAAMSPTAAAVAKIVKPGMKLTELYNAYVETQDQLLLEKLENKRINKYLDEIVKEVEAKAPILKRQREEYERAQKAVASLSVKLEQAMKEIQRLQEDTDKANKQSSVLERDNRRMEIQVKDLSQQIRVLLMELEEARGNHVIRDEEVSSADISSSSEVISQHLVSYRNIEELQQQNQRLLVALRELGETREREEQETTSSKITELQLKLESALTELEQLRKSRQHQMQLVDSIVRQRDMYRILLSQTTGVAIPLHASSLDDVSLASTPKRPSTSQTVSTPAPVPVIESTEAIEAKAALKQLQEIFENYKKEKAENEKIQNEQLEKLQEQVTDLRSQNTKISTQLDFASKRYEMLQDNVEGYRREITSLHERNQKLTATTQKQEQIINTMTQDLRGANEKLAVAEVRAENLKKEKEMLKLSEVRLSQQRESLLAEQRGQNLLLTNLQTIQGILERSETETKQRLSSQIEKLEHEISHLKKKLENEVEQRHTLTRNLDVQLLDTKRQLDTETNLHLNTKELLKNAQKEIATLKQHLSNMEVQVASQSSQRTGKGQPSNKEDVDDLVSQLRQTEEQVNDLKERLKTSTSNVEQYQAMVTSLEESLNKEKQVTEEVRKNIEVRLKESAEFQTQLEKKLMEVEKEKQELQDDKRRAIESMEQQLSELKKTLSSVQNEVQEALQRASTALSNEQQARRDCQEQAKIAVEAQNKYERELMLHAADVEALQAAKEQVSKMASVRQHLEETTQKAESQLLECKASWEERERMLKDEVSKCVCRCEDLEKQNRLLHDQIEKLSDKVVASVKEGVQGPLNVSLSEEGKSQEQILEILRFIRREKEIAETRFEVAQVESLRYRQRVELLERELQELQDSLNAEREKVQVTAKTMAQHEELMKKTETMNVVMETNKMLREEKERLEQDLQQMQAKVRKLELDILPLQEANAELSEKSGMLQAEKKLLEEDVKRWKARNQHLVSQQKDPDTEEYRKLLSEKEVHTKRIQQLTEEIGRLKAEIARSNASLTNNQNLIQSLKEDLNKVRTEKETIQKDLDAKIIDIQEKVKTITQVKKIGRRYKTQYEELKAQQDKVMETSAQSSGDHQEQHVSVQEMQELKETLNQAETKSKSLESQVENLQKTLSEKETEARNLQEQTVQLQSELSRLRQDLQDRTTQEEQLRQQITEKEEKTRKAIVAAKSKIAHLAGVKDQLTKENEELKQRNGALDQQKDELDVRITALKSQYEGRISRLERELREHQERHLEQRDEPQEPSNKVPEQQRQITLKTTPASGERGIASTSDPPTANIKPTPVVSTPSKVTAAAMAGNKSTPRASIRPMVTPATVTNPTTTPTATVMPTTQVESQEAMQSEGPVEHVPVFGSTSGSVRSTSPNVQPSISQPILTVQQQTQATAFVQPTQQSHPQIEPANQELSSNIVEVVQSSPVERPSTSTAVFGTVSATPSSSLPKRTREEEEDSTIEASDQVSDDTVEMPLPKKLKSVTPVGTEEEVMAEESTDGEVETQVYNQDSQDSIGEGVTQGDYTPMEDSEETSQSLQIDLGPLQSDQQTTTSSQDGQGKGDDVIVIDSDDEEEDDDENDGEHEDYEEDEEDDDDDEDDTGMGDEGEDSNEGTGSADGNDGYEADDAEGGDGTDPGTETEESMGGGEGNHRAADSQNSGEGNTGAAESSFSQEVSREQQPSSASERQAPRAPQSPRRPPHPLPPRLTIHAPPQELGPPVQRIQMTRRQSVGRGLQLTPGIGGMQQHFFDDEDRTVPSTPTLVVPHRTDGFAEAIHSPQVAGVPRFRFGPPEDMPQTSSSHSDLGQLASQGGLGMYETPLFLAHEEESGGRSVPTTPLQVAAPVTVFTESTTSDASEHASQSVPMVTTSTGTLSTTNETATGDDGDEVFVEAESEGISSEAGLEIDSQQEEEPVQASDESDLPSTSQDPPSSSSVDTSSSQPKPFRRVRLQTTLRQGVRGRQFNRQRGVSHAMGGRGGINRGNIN

Legend:
[1] = molecular target: translation elongation factor eEF1A1 (isoform 1 of eEF1A) (human (endogenous in MDA-MB231)) (UniProt P68104); test: co-IP; extracts of unstressed or heat-shocked (43°C) MDA-MB231 cells; nonidet lysis buffer (25 mM Hepes pH 7.9, 100 mM NaCl, 5 mM EDTA, 0.5% NP40); 1 mg pre-cleared protein IPed overnight at 4°C with 5 ug anti-eEF1A1 or IgG, Dynabeads protein G, five washes in B150; immunoblot
[2] = molecular target: heat shock factor 1 (HSF1) (human (endogenous in MDA-MB231)) (UniProt Q00613); test: co-IP; extracts of unstressed or heat-shocked MDA-MB231 cells IPed with HSF1 antibody or IgG; SDS-PAGE and immunoblotting
[3] = molecular target: heat shock factor 1 (HSF1) (human (endogenous in MDA-MB231)) (UniProt Q00613); test: native gel or EMSA; super-shift of the HSF1-HSE EMSA by anti-eEF1A1 antibody; extracts of MDA-MB231 cells heat-shocked 20 min at 43°C or treated with arsenite; 10 ug extract incubated with 1 ug antibody for 1 hr before radiolabelled HSE; IgG as mock

Row | Substance | binding [1] | binding [2] | binding [3]
1 | nuclear pore complex (NPC) protein TPR1 (from UniProt P12270 1-2363) | binds |  | 
2 | translation elongation factor eEF1A1 (isoform 1 of eEF1A) (from UniProt P68104 1-462) |  | binds | binds
3 | heat shock factor 1 (HSF1) (from UniProt Q00613-1 1-529) | binds |  | 
